{"sequences": {"note": "By UniProt entry, the sequences of proteins in these tests, tags left out. Where a name states a change or a piece, a line headed by the entry shows the natural chain unless it says otherwise.", "UniProt Q53R41": "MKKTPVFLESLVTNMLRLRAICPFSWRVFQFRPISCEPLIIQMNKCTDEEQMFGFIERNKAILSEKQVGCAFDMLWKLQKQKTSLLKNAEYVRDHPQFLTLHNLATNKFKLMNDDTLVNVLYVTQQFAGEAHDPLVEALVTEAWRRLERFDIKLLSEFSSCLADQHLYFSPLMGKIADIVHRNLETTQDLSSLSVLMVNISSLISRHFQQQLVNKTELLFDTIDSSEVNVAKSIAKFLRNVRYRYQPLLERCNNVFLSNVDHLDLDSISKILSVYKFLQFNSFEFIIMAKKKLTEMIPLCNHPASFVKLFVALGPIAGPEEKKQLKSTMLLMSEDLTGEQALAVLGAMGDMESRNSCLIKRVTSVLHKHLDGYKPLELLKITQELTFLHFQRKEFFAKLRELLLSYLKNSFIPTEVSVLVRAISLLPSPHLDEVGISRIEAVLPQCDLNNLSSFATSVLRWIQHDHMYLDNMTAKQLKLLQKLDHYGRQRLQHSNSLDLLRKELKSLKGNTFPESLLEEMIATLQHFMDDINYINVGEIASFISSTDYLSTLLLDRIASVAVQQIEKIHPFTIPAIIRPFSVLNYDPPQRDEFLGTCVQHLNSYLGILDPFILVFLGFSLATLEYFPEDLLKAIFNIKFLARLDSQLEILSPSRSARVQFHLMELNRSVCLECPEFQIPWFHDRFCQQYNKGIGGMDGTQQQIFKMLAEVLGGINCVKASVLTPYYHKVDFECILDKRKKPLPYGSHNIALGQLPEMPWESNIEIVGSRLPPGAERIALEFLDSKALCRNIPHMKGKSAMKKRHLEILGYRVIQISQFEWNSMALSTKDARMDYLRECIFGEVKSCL", "UniProt Q8NB91": "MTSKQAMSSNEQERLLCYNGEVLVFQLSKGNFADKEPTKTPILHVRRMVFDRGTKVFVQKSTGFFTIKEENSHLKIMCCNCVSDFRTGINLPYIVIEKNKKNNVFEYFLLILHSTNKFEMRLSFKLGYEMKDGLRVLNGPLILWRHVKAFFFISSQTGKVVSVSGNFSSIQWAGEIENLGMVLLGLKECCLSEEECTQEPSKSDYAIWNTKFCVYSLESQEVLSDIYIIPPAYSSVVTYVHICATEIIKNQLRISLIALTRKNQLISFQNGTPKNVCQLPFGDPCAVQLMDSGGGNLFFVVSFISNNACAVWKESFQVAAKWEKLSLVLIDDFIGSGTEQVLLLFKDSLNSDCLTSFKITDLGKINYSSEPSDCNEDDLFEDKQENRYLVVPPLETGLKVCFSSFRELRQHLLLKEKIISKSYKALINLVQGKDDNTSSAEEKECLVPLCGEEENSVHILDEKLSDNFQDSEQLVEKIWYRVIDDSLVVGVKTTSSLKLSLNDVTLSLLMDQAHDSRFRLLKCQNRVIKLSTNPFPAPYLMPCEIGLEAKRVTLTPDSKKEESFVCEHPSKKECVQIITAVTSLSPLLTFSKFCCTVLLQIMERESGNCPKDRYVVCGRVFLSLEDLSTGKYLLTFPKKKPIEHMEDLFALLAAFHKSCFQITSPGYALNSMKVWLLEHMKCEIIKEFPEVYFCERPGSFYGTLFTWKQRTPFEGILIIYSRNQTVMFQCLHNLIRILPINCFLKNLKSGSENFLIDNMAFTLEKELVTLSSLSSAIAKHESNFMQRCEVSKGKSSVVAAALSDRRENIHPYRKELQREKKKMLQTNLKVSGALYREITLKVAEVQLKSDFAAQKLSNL", "UniProt P49327, whole entry, looked up": "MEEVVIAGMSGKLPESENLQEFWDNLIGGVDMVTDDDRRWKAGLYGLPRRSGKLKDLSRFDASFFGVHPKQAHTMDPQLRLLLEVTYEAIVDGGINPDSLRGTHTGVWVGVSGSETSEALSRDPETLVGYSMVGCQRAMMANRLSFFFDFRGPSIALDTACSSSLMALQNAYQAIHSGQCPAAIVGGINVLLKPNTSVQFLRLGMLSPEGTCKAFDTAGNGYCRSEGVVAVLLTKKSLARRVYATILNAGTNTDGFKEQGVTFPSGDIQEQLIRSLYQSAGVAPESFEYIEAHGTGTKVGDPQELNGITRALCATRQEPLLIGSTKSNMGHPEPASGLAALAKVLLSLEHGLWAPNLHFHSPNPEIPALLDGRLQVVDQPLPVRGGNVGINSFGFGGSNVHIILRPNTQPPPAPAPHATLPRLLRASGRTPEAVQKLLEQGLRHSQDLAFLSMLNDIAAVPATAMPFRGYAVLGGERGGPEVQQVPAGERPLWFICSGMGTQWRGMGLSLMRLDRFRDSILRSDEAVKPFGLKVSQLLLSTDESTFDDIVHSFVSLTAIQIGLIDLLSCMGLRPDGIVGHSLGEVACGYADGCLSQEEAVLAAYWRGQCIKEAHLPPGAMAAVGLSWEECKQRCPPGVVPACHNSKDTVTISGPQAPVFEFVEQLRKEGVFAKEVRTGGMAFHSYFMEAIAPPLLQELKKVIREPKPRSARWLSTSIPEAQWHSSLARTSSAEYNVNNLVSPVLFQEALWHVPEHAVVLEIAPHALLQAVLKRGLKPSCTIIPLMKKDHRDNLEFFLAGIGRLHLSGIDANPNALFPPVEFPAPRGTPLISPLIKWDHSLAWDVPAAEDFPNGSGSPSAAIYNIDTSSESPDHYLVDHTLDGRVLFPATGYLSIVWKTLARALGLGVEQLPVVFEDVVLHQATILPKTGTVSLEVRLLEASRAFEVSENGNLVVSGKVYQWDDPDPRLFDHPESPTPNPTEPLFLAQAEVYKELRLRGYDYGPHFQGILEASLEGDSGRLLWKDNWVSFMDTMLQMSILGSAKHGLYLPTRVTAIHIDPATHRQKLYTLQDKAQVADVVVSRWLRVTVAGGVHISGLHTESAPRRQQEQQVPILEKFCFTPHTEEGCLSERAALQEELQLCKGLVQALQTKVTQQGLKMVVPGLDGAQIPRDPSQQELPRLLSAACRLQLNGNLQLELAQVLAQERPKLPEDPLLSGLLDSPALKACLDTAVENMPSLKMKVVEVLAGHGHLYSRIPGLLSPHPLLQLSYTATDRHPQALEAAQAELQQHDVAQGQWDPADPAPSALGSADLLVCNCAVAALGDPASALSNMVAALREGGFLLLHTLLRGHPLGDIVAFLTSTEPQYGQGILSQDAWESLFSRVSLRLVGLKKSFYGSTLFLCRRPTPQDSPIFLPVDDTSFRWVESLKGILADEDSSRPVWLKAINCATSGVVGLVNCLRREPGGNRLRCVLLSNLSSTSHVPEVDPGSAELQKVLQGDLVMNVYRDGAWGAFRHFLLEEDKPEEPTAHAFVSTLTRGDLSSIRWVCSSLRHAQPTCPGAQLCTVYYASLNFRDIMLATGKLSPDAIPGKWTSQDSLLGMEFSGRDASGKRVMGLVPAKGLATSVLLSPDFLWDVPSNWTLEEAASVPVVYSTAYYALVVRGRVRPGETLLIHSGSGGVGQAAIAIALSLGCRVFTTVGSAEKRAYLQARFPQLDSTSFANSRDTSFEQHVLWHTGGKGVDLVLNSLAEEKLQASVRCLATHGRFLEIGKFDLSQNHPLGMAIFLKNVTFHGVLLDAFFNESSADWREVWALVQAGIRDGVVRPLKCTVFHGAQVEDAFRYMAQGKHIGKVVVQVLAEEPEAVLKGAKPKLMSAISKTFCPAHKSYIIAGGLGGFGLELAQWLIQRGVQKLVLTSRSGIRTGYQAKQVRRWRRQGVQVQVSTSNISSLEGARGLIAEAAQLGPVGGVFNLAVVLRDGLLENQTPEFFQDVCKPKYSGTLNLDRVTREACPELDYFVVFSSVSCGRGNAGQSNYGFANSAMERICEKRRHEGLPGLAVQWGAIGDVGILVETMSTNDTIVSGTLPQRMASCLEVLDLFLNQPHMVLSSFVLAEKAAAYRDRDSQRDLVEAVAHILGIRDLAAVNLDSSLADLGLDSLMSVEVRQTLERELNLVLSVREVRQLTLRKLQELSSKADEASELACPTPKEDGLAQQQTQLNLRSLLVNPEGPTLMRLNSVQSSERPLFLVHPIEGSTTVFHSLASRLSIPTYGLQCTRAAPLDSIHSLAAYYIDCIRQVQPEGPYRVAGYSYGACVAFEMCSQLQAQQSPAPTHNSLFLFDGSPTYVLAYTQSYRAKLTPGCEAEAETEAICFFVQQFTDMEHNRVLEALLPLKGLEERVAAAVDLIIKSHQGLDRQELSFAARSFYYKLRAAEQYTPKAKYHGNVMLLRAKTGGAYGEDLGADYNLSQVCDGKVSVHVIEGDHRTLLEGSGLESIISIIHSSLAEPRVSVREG", "UniProt Q96K12": "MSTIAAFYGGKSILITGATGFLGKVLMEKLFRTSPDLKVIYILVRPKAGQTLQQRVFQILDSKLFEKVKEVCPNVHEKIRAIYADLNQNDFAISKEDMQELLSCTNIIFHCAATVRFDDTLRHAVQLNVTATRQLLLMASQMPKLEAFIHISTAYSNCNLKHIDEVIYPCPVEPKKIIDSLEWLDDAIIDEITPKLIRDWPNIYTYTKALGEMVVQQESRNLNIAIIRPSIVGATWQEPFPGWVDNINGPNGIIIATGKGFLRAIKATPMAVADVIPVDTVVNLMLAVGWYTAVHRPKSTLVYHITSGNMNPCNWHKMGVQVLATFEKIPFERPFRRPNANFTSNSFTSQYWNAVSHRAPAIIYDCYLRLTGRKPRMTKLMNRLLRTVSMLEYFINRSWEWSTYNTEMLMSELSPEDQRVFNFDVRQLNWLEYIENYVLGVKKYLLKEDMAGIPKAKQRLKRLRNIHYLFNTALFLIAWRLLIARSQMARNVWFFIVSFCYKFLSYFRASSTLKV", "UniProt Q9NYY8": "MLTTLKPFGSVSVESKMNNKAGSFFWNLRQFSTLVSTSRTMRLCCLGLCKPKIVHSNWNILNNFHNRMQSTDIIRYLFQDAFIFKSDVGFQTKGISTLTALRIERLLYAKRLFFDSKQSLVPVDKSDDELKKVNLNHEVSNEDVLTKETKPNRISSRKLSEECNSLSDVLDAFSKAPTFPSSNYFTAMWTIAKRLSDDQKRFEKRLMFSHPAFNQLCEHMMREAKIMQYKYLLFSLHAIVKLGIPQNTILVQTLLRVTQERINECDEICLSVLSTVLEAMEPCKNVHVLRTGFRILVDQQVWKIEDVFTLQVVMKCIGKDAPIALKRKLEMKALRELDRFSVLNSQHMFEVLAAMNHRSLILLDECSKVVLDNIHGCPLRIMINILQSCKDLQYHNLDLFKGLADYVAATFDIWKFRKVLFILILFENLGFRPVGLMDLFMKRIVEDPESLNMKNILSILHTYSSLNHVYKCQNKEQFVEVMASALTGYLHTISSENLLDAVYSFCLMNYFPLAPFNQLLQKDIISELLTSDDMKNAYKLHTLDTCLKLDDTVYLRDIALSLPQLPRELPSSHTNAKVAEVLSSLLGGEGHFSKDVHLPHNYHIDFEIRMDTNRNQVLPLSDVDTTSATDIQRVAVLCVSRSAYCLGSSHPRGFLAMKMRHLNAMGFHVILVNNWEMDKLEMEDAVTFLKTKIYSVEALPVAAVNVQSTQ", "UniProt Q9Y3I1": "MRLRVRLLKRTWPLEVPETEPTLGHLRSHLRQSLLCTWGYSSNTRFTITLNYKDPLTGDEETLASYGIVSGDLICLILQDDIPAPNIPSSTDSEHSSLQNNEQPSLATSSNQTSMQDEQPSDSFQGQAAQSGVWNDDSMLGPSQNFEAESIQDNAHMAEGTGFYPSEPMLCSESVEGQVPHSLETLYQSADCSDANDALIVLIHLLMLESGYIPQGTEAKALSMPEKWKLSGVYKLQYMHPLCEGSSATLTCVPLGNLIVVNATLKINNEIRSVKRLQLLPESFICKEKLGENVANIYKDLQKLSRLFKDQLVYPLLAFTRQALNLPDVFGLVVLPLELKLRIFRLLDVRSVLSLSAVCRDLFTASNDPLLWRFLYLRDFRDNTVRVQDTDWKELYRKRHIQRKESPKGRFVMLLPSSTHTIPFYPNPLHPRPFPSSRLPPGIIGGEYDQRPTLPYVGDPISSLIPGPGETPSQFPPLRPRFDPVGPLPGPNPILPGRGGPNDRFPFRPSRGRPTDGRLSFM", "UniProt P02679": "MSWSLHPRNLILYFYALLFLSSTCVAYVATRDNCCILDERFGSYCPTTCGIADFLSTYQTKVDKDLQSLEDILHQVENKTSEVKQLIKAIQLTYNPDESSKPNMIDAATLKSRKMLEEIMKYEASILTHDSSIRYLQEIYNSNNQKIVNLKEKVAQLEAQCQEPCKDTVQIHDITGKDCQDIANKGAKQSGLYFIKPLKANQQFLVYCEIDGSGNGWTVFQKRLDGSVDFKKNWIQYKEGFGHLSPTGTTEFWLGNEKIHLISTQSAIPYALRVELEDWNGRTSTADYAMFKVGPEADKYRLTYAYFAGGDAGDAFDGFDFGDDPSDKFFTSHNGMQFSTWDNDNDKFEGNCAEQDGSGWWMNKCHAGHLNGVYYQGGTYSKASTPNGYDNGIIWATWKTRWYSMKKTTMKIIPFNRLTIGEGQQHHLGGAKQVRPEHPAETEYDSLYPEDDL"}, "source": "the supplement of paper PMC12067093", "about": "“Discovery and optimisation of a covalent ligand for TRIM25 and its application to targeted protein ubiquitination” (Chemical Science, 2025)", "note": "This is one part of the list.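 Also: competitive profiling in live THP-1 cells: cysteine peptides tagged with an iodoacetamide desthiobiotin (IA-DTB) probe, intensity after compound treatment relative to DMSO-treated cells.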", "data": [{"compound": "Cc1cc(ccc1-c1ccccc1)C(=O)N1CCCN(CC1)C(=O)CCl [compound 10]", "experiment": "probe-labelled cysteine peptide fold change vs DMSO (competition) (log2 fold change); higher = less target engagement (more negative = stronger competition)", "conditions": "10 µM; THP-1; incubation time: 4 h", "values": [{"target": "FASTKD1_Q53R41_446_IEAVLPQCDLNNLSSFATSVLR (UniProt Q53R41)", "probe-labelled cysteine peptide fold change": 0.0514}, {"target": "FANCB_Q8NB91_543_LSTNPFPAPYLMPCEIGLEAK (UniProt Q8NB91)", "probe-labelled cysteine peptide fold change": -0.145}, {"target": "FASN_P49327_1227_ACLDTAVENMPSLK (UniProt P49327)", "probe-labelled cysteine peptide fold change": 0.0497}, {"target": "FAR2_Q96K12_111_EDMQELLSCTNIIFHCAATVR (UniProt Q96K12)", "probe-labelled cysteine peptide fold change": 0.00258}, {"target": "FBXO4_Q9UKT5_330_HEWQDEFSHIMAMTDPAFGSSGRPLLVLSCISQGDVK (UniProt Q9UKT5)", "probe-labelled cysteine peptide fold change": 0.0347}, {"target": "FASTKD2_Q9NYY8_645_SAYCLGSSHPR (UniProt Q9NYY8)", "probe-labelled cysteine peptide fold change": 0.0566}, {"target": "FASTKD2_Q9NYY8_546_LHTLDTCLK (UniProt Q9NYY8)", "probe-labelled cysteine peptide fold change": -0.0542}, {"target": "FBXL19_Q6PCT2_637_ETLVHLNLAGCHR (UniProt Q6PCT2)", "probe-labelled cysteine peptide fold change": 0.11}, {"target": "FBXO7_Q9Y3I1_286_RLQLLPESFICK (UniProt Q9Y3I1)", "probe-labelled cysteine peptide fold change": -0.0958}, {"target": "FDXR_P22570_42_TPQICVVGSGPAGFYTAQHLLK (UniProt P22570)", "probe-labelled cysteine peptide fold change": 0.0859}, {"target": "FASN_P49327_1141_AALQEELQLCK (UniProt P49327)", "probe-labelled cysteine peptide fold change": 0.0995}, {"target": "FBXO30_Q8TB52_90_VAEHLEMCPASVVCCTMEWNR (UniProt Q8TB52)", "probe-labelled cysteine peptide fold change": -0.103}, {"target": "FGG_P02679_34_DNCCILDER (UniProt P02679)", "probe-labelled cysteine peptide fold change": -0.281}, {"target": "FAT1_Q14517_574_INCEGTIPR (UniProt Q14517)", "probe-labelled cysteine peptide fold change": -0.292}, {"target": "FASN_P49327_1127_FCFTPHTEEGCLSER (UniProt P49327)", "probe-labelled cysteine peptide fold change": 0.025}, {"target": "FASN_P49327_630_EAHLPPGAMAAVGLSWEECK (UniProt P49327)", "probe-labelled cysteine peptide fold change": 0.236}]}]}
